According to US11628186B2, “Method and composition for the reduction of viral replication, duration and spread of the COVID-19 and the flu” (priority 2017, dated 2023):
Some of these results come from one statement about several compounds together.

Tested on: patients with lung diseases including COPD
Experiment: Comparison of inhaled salts of pyruvate, 5 ml of 0.5 mM solution (Table I)
Conditions: 5 mls of a 0.5 mM pyruvate inhalation solution in COPD and asthmatic patients
Method: All previous studies using pyruvate to treat Allergic Rhinitis, Asthmatic and COPD patients used only the sodium salt form of pyruvic acid in saline. The drug products that were tested in the six Phase I/II clinical trial were differing concentrations of sodium pyruvate dissolved in 0.9% sodium chloride solution (Saline). These drug products contained 0.5 mM, 1.5 mM, or 5.0 mM of sodium pyruvate in physiological saline. They were administered to normal volunteers and COPD and asthmatics by inhalation therapy. […] Various sodium pyruvate solutions were evaluated in the lungs for their ability to enhance FEV1 values and reduce coughing, and lung tightness.
The amount of the salts delivered in the 5 ml's of the 0.5 mM pyruvate solutions were compared to the amounts of the salts in 5 ml's of human blood. […] When ethyl pyruvate reacts with oxygen radical like hydrogen peroxide, it is converted to ethane and alcohol and Co2 and acetate. Ethane and alcohol are lung irritants.
This formula can also be made by adding 3% calcium phosphate or dicalcium phosphate to the standard 0.5 mM to 30 mM sodium pyruvate saline solution see Table I.

## CC(=O)C(=O)O.N [Ammonium, ammonium pyruvate]
  FEV1: 4-6%
